Numbering of substitutions follows the chain as printed. The list shows a part of the results, in another mix than the full data. The calls were merged from several studies; some rest on single wells. This is one part of the list.
What was measured:
Conditions in all cases: stereoisomer not certain
OR2C3 = test system: T1, OR2C3
T1 sequence (whole entry): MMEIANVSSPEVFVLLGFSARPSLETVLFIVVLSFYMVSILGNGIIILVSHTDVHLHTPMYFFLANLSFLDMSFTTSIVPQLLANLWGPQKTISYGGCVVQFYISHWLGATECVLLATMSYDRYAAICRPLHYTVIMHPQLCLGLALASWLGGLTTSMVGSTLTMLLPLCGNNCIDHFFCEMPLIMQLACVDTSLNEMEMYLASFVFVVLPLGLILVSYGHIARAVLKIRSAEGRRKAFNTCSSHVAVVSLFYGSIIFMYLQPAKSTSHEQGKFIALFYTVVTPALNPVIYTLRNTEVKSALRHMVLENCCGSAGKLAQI
In short: (§1)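 Values were gathered from published papers (main text and supplementary material), with extra details requested from the original authors when needed, and checked for typos and inconsistencies. Each receptor–molecule pair is called responsive (active) if the original authors judged the measured signal statistically different from baseline, and non-responsive (inactive) otherwise. Assay methods varied by source, often transient mammalian cell-line luciferase assays. Recorded details include cell line, G-protein, co-transfected protein and tags.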

Chains of the proteins cited; added tags and fusions are not shown. A line that says so, or that is headed by a name, gives the form on record, which may keep a tag or linker.
OR2F1, as listed by the source: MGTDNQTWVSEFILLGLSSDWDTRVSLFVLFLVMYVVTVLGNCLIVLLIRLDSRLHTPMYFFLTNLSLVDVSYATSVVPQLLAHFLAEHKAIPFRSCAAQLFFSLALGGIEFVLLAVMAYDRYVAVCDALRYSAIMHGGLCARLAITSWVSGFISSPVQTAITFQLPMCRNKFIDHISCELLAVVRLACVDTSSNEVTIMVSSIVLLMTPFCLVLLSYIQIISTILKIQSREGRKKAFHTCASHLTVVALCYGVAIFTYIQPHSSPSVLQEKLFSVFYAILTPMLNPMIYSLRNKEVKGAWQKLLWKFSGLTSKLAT
OR2G2, as listed by the source: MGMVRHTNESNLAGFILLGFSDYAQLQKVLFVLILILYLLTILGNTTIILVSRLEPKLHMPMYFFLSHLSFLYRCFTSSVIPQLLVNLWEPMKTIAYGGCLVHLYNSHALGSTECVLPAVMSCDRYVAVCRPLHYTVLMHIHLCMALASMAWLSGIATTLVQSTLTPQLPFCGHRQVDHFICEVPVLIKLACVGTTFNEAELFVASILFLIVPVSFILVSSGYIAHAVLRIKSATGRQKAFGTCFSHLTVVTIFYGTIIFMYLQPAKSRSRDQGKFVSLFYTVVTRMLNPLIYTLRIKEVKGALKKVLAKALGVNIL

OR2D2 (Homo sapiens) = molecular target: T2, OR2D2 (Homo sapiens) (UniProt Q9H210)
T2 sequence (whole entry): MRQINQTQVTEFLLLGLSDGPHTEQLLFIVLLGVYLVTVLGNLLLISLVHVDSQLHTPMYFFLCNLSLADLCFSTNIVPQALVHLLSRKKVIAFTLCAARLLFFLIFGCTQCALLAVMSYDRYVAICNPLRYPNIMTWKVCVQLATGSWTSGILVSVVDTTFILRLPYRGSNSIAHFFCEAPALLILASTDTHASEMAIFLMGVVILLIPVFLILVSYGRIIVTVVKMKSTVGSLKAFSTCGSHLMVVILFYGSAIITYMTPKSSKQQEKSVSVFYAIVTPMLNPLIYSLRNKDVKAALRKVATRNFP
In short: as §1

OR2D3 (Homo sapiens) = OR2D3 (Homo sapiens) (UniProt Q8NGH3)
In short: as §1

OR2D3 = test system: T3, OR2D3
T3 sequence (whole entry): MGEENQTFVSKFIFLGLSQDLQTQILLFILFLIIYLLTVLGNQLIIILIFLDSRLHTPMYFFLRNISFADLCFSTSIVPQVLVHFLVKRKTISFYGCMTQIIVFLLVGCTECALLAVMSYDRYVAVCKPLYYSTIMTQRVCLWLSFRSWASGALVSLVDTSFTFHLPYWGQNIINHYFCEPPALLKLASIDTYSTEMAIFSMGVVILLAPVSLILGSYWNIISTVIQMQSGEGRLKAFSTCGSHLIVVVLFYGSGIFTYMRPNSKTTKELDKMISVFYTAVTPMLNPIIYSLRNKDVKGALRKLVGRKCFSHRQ
In short: as §1

OR2F1 (Homo sapiens) = molecular target: T4, OR2F1 (Homo sapiens) (UniProt Q13607)
T4 sequence (whole entry): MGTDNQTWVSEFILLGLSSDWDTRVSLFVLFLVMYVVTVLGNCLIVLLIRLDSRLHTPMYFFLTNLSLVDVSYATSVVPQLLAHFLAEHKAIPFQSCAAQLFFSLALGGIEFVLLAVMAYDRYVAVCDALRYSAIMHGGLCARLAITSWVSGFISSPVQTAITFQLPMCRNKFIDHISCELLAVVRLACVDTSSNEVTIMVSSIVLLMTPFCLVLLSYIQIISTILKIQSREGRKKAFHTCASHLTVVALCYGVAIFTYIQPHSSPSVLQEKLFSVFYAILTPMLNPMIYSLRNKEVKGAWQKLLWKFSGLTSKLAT
In short: as §1

OR2F2 (Homo sapiens) = OR2F2 (Homo sapiens) (UniProt O95006)
In short: as §1

OR2F2 = test system: T5, OR2F2
T5 sequence (whole entry): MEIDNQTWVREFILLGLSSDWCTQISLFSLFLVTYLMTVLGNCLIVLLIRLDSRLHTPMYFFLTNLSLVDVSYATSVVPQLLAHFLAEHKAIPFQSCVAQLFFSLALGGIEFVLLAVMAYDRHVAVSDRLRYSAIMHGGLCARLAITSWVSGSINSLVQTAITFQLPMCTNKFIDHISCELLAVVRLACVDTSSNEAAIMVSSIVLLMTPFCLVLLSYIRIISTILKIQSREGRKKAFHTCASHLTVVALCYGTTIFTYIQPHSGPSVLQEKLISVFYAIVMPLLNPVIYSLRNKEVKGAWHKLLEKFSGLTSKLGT
In short: as §1

OR2G2 (Homo sapiens) = molecular target: T6, OR2G2 (Homo sapiens) (UniProt Q8NGZ5)
T6 sequence (whole entry): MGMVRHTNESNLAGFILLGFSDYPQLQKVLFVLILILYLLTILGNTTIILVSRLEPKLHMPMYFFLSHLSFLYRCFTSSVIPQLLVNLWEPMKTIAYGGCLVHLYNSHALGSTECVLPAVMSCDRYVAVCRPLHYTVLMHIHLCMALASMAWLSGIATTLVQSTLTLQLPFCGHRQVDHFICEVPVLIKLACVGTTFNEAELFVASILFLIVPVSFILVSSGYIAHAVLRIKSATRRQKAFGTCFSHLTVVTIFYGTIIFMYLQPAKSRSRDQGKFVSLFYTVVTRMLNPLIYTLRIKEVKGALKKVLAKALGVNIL
In short: as §1

OR2G2 [1] = test system: T7, OR2G2
T7 sequence (whole entry): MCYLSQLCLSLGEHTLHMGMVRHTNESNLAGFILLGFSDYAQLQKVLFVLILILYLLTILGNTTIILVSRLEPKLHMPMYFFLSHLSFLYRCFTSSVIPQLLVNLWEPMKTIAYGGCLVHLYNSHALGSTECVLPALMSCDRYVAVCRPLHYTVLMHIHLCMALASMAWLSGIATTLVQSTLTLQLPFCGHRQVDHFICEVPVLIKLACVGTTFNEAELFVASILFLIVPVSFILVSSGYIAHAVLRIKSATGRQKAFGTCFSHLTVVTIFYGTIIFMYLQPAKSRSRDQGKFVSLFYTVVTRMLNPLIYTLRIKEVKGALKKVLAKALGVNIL
In short: as §1

OR2G2 [2] = test system: T8, OR2G2; remark: listed apart in the source
T8 sequence (whole entry): T6 sequence (whole entry) with P24A, L167P, R236G
In short: as §1

OR2G3 (Homo sapiens) = molecular target: T9, OR2G3 (Homo sapiens) (UniProt Q8NGZ4)
T9 sequence (whole entry): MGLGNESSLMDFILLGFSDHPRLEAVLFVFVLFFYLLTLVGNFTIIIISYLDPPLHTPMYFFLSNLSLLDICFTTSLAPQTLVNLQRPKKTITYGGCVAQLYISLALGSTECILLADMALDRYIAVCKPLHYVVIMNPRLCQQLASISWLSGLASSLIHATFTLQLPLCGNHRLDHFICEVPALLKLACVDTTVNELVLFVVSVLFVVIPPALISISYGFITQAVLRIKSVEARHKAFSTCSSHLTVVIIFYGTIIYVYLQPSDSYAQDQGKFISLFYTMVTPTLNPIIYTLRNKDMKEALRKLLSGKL
In short: as §1

OR2G3 = test system: T10, OR2G3
T10 sequence (whole entry): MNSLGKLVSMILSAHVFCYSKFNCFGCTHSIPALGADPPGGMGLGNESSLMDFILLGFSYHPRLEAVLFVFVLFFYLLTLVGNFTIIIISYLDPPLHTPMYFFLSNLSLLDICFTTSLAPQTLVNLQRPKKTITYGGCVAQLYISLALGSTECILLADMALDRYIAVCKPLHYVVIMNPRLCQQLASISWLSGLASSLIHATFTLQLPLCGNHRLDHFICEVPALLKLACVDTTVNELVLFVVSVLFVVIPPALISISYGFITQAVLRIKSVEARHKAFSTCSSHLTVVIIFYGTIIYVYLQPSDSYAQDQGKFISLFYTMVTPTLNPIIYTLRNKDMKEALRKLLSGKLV
In short: as §1

OR2G6 (Homo sapiens) = molecular target: T11, OR2G6 (Homo sapiens) (UniProt Q5TZ20)
T11 sequence (whole entry): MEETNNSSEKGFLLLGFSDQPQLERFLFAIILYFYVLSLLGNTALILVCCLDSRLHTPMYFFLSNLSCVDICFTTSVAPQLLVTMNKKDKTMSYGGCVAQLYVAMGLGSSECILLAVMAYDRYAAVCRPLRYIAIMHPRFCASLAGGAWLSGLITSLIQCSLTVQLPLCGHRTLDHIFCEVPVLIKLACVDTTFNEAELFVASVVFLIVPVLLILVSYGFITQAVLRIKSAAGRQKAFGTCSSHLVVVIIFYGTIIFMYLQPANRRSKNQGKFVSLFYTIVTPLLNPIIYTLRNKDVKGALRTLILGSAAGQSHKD
In short: as §1

OR2H1 (Homo sapiens) = molecular target: T12, OR2H1 (Homo sapiens) (UniProt Q9GZK4)
T12 sequence (whole entry): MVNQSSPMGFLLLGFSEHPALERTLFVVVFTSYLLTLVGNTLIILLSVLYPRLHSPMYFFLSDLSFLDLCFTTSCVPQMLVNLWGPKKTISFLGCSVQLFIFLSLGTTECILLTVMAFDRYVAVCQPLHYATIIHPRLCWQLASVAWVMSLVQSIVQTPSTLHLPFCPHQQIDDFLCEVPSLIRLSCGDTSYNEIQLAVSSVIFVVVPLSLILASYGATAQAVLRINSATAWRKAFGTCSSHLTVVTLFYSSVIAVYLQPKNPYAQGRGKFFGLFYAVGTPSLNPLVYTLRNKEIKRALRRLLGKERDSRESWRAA
In short: as §1

OR2H2 (Homo sapiens) = molecular target: T13, OR2H2 (Homo sapiens) (UniProt O95918)
T13 sequence (whole entry): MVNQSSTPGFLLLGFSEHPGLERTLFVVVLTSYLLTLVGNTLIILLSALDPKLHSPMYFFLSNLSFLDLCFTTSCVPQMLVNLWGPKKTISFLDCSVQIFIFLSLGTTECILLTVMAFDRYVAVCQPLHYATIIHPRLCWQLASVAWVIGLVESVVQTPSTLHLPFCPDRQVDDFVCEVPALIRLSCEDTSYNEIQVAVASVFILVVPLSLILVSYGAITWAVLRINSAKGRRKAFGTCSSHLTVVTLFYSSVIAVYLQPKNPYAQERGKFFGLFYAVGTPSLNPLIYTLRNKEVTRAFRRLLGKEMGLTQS
In short: as §1

OR2H2 = test system: T14, OR2H2
T14 sequence (whole entry): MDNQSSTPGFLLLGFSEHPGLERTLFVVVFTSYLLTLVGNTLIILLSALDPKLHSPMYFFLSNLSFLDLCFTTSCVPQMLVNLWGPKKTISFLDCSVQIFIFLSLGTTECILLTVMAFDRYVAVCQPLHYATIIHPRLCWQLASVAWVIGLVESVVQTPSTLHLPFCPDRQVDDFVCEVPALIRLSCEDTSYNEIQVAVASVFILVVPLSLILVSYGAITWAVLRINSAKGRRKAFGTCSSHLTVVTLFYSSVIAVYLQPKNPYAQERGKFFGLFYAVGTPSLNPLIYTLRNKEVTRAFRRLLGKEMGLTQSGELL
In short: as §1

OR2F1 [3] = test system: OR2F1
In short: as §1

OR2F1 [4] = test system: OR2F1; remark: listed apart in the source
In short: as §1

OR2F1 [5] = test system: OR2F1; remark: listed apart in the source
In short: as §1

OR2F1 [6] = test system: OR2F1; remark: listed apart in the source
In short: as §1

| Compound | odorant receptor agonist call (OR2C3) | odorant receptor agonist call (OR2D2 (Homo sapiens)) | odorant receptor agonist call (OR2D3 (Homo sapiens)) | odorant receptor agonist call (OR2D3) | odorant receptor agonist call (OR2F1 (Homo sapiens)) | odorant receptor agonist call (OR2F2 (Homo sapiens)) | odorant receptor agonist call (OR2F2) | odorant receptor agonist call (OR2G2 (Homo sapiens)) | odorant receptor agonist call (OR2G2 [1]) | odorant receptor agonist call (OR2G2 [2]) | odorant receptor agonist call (OR2G3 (Homo sapiens)) | odorant receptor agonist call (OR2G3) | odorant receptor agonist call (OR2G6 (Homo sapiens)) | odorant receptor agonist call (OR2H1 (Homo sapiens)) | odorant receptor agonist call (OR2H2 (Homo sapiens)) | odorant receptor agonist call (OR2H2) | odorant receptor agonist call (OR2F1 [3]) | odorant receptor agonist call (OR2F1 [4]) | odorant receptor agonist call (OR2F1 [5]) | odorant receptor agonist call (OR2F1 [6]) |
| --- | --- | --- | --- | --- | --- | --- | --- | --- | --- | --- | --- | --- | --- | --- | --- | --- | --- | --- | --- | --- |
| CC12C=CCC1C1CCC3CC(=O)CCC3(C)C1CC2 (configuration not stated) | inactive | inactive | inactive | inactive | inactive | inactive | inactive | inactive | inactive | inactive | inactive | inactive | inactive | inactive | inactive | inactive | – | – | – | – |
| CC12C=CCC1C1CCC3=CC(=O)CCC3(C)C1CC2 (configuration not stated) | inactive | inactive | – | inactive | active | – | active | – | inactive | inactive | inactive | inactive | inactive | inactive | – | active | – | – | – | – |
| COC(=O)c1ccccc1O | inactive | inactive | – | inactive | inactive | – | inactive | – | inactive | inactive | inactive | inactive | inactive | inactive | – | inactive | – | – | – | – |
| C=CCc1ccc(OC(C)=O)c(OC)c1 | active | active | – | inactive | active | – | inactive | inactive | inactive | inactive | inactive | inactive | inactive | inactive | – | inactive | inactive | inactive | inactive | inactive |
| CCCCCCCC=O | inactive | inactive | – | inactive | inactive | – | inactive | – | inactive | inactive | inactive | inactive | inactive | inactive | active | inactive | – | – | – | – |
| C=CCc1ccc(OC)c(OC)c1 | inactive | inactive | – | inactive | inactive | – | inactive | – | inactive | inactive | inactive | inactive | inactive | inactive | – | inactive | – | – | – | – |
